# Measured values reported in patent publication US20110212111A1, “MHC II Associated Protein and Uses Thereof” (priority 2008, published 2011).
# At least one compound was matched to its structure with a doubt left.
# System: AKT
# Assay: MHC II mediated AKT activation (phospho-AKT Ab blotting)
# Format: cell-based, murine
# Details: K46 cells
compound,measurement,value
O=c1cc(N2CCOCC2)oc2c(-c3ccccc3)cccc12 [LY294002],effect on MHC II mediated AKT activation,inhibited
